Assay results: paper doi:10.1101/2024.01.27.577582
Results are given in words; binding and its absence hold for the method and conditions named. Binding seen in cells or lysates may run through a third protein. Sequences can lack the tags named with a protein.

Molecular target: T1, KSHV ORF57 protein (Kaposi's sarcoma-associated herpesvirus (KSHV)) (UniProt Q2HR75)
T1 sequence: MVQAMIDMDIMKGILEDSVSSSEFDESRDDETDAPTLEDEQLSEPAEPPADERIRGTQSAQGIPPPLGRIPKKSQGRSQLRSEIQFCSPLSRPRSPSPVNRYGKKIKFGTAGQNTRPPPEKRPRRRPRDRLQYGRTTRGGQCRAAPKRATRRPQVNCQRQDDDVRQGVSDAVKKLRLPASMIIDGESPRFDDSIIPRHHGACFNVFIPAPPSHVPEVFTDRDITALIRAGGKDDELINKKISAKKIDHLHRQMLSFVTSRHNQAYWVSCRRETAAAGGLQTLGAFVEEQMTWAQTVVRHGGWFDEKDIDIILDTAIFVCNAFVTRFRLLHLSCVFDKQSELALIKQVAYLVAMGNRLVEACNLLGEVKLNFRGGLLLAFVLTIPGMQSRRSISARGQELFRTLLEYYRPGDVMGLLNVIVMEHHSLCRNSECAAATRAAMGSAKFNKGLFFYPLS
Assay: co-IP; total lysate (RIPA) of HEK293T cells co-transfected with ORF57 and AEN-FLAG-myc vectors for 24 h; IP with anti-ORF57 or anti-myc antibody on protein A beads in 1 x IP buffer overnight at 4°C; Western blot

B1: AEN-FLAG-myc (apoptosis enhancing nuclease) (enzyme, UniProt Q8WTP8 1-325)
chain: MVPREAPESAQCLCPSLTIPNAKDVLRKRHKRRSRQHQRFMARKALLQEQGLLSMPPEPGSSPLPTPFGAATATEAASSGKQCLRAGSGSAPCSRRPAPGKASGPLPSKCVAIDCEMVGTGPRGRVSELARCSIVSYHGNVLYDKYIRPEMPIADYRTRWSGITRQHMRKAVPFQVAQKEILKLLKGKVVVGHALHNDFQALKYVHPRSQTRDTTYVPNFLSEPGLHTRARVSLKDLALQLLHKKIQVGQHGHSSVEDATTAMELYRLVEVQWEQQEARSLWTCPEDREPDSSTDMEQYMEDQYWPDDLAHGSRGGAREAQDRRN
With B1 the binding was “no binding”.
